Assay results: the supplement of paper PMC10735217
Structures can show the parent of a compound that is named as a salt. This is one part of the list. Single values are uncertain here, since repeats match poorly.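 The human kidney-derived cells carry a stably integrated construct of eight TEAD-binding elements driving luciferase, read by luminescence in a drug-repurposing library screen. A compound counts as a hit when its signal is more than five robust Z scores above the plate mean.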

System: HEK293A TEAD-LUC reporter
Assay: TEAD-luciferase reporter activity (YAP activation), robust Z score vs plate; higher = stronger YAP/TEAD activation
Conditions: 24 h

Row | Compound | TEAD-luciferase reporter activity (compound concentration: 200 nM) | TEAD-luciferase reporter activity (compound concentration: 2 uM) | TEAD-luciferase reporter activity (compound concentration: 10 uM)
1 | Cc1cccc(COC2CCCC(OCc3coc(-c4ccc(F)cc4)n3)C2)c1C(=O)O (stereo not drawn) | inactive: -1.73 | inactive: -0.221 | inactive: -1.26
2 | N[C@@H](Cc1cc(I)c(Oc2cc(I)c(O)c(I)c2)c(I)c1)C(=O)O | inactive: -1.21 |  | inactive: 0.307
3 | N[C@@H](Cc1cc(I)c(Oc2cc(I)c(O)c(I)c2)c(I)c1)C(=O)O [Levothyroxine sodium] |  | inactive: -1.09 | 
4 | COCC(C)OC(=O)[C@@H](N)Cc1ccc(O)c(O)c1 (stereo partly drawn) | inactive: -0.294 | inactive: -1.19 | inactive: 3.87
5 | CCNC(=O)c1noc(-c2cc(C(C)C)c(O)cc2O)c1-c1ccc(CN2CCOCC2)cc1 [Luminespib] | inactive: -3.21 | inactive: -1.38 | inactive: 0.924
6 | CCC(c1ccc(O)cc1)C(CC)c1ccc(O)cc1 (stereo not drawn) | inactive: 0.00205 | inactive: 1.08 | inactive: -0.636
7 | O=C1NC2(CCN(Cc3ccc(F)cc3)CC2)Oc2ccccc21 | inactive: 0.137 |  | inactive: -0.309
8 | CC(C)(C)c1cc(C2CCCCC2)ccc1OC(=O)c1ccc[n+]([O-])c1 | inactive: 0.0406 | inactive: 0.916 | inactive: -1.95
9 | Cn1c(-c2ccccc2)nnc1S(C)(=O)=O | inactive: -2.61 | inactive: 0.113 | inactive: 0.801
10 | CCOCCn1c(C2CCN(CCc3ccc(C(C)(C)C(=O)O)cc3)CC2)nc2ccccc21 [bilastine] | inactive: -1.34 | inactive: 0.531 | inactive: 1.05
11 | CC(C)(C)c1ccc(C(=O)CCCN2CCC(OC(c3ccccc3)c3ccccc3)CC2)cc1 [ebastine] | inactive: 0.513 | inactive: -0.565 | inactive: -0.943
12 | CCN(CC)CCOC(=O)C(c1ccccc1)C1(O)CCCC1 (stereo not drawn) | inactive: 0.00927 | inactive: -0.551 | inactive: 0.184
13 | CN(C)CCN(Cc1ccccc1)c1ccccn1 | inactive: -0.308 | inactive: 2.11 | inactive: 1.78
14 | CC1(C)CC(=O)c2c(C(F)(F)F)nn(-c3ccc(C(N)=O)c(N[C@H]4CC[C@H](OC(=O)CN)CC4)c3)c2C1 | inactive: -1.26 | inactive: -0.416 | inactive: -3.46
15 | CC1(C)S[C@@H]2[C@H](NC(=O)[C@H](N)c3ccccc3)C(=O)N2[C@H]1C(=O)OCOC(=O)[C@@H]1N2C(=O)C[C@H]2S(=O)(=O)C1(C)C [sultamicillin] | inactive: 1.54 | inactive: -1.25 | inactive: 1.13
16 | O=C(NC1CCCCCC1)c1ccc2nccn2c1 | inactive: -0.963 |  | active: 7.35
17 | CNc1cc(OC)c(C(=O)NC2CCN(Cc3ccccc3)[C@H]2C)cc1Cl (stereo partly drawn) [nemonapride] | inactive: 0.0559 | inactive: -1.35 | inactive: -2.14
18 | O=C1CCCCC1(CCN1CCCCCC1)C(=O)OCc1ccccc1 (stereo not drawn) | inactive: -1.15 | inactive: 0.843 | inactive: 1.05
19 | O=N[O-] [Sodium Nitrite] | inactive: -2.22 | inactive: 0.954 | inactive: 4.34

Row | Compound | TEAD-luciferase reporter activity (compound concentration: 200 nM) | TEAD-luciferase reporter activity (compound concentration: 2 uM) | TEAD-luciferase reporter activity (compound concentration: 10 uM)
20 | CCC(C)C1OC2(C=CC1C)CC1CC(C/C=C(\C)C(OC3CC(OC)C(OC4CC(OC)C(NC(C)=O)C(C)O4)C(C)O3)C(C)/C=C/C=C3\COC4C(O)C(C)=CC(C(=O)O1)C34O)O2 (stereo not drawn) | inactive: 4.32 | inactive: -0.158 | inactive: -0.671
21 | Cc1cc(Nc2ccc(C(F)(F)F)nc2)n2nc(C(C)(F)F)nc2n1 | inactive: -0.822 | inactive: 0.316 | inactive: 4.65
22 | COC(Cc1ccc(OCCCOc2ccc(Oc3ccccc3)cc2)cc1)C(=O)O (stereo not drawn) | inactive: -0.405 | inactive: 0.956 | inactive: -0.809
23 | CC(C)(C)C(=O)SCC(=O)[C@@]1(O)CCC2C3CCC4=CC(=O)CC[C@]4(C)C3[C@@H](O)C[C@@]21C (stereo partly drawn) | inactive: 0.379 | inactive: 1.93 | inactive: 1.78
24 | C=CCCC(=O)NC[C@H]1CN(c2ccc(N3CCOCC3)c(F)c2)C(=O)O1 | inactive: -1.01 | inactive: -0.241 | inactive: 2.58
25 | CN1CCCN=C1/C=C/c1cccc(O)c1 [Oxantel (pamoate)] | inactive: 0.35 | inactive: -0.462 | inactive: 0.00523
26 | CC1CC(OC(=O)c2ccccc2)CC(C)(C)N1 (stereo not drawn) | inactive: -1.11 | inactive: -0.585 | inactive: -0.817
27 | Oc1ccc(N2CCN(c3ccccc3)CC2)nn1 | inactive: 4.11 | inactive: 1.07 | inactive: -1.45
28 | Ic1ccc2nc(-c3ccccc3)cn2c1 | inactive: 1.36 | inactive: -2.23 | inactive: -0.0965
29 | O=C1Nc2ccccc2CC12CCCN(CC1CC1)C2 (stereo not drawn) | inactive: -1.02 |  | inactive: 0.395
30 | Cc1nccn1CC1CCc2c(c3cccc4c3n2CCC4)C1=O (stereo not drawn) | inactive: -0.899 | inactive: -0.323 | inactive: -1.13
31 | O=C(O)[C@@H]1[O][Sb](=[O])([O][Sb]2(=[O])[O][C@H]([C@H](O)CO)[C@H](O)[C@H](C(=O)O)[O]2)[O][C@H]([C@H](O)CO)[C@@H]1O (stereo partly drawn) [Sodium stibogluconate] | inactive: 1.19 | inactive: 1.8 | inactive: 0.99
32 | O=C(CCNC(=O)c1ccccc1Cl)NCC12CC3CC(CC(C3)C1)C2 | inactive: 0.202 | inactive: -0.475 | inactive: -0.606
33 | Nc1nc(=O)c2ncn(CC(CO)CO)c2[nH]1 [Tivicilovir] | inactive: 0.395 | inactive: -1.61 | inactive: -0.606
34 | C[C@@H]1CN(C[C@@H](c2cccc(OC(F)(F)F)c2)C2(O)CCCCC2)C[C@H](C)N1 | inactive: -0.318 | inactive: 1.11 | inactive: -1.1
35 | Cc1cc(C(C)(C)C)c(O)c(C)c1CC1=NCCN1 [oxymetazoline, Allergan] | inactive: -0.756 | inactive: -0.695 | inactive: -0.718
36 | COc1nc(C)cnc1NS(=O)(=O)c1cccnc1-c1ccc(CC(C)(C)C(=O)O)cc1 | inactive: -0.129 | inactive: -0.364 | inactive: 1.6
37 | CC(/C=C/[C@@H]1C[C@]1(C)c1ccc2c(c1)C(C)(C)CCC2(C)C)=C\C(=O)O | inactive: -0.185 | inactive: 0.745 | inactive: 2.71
38 | COC(=O)c1[nH]cc(-c2ccc(Br)cc2)c1N1CCOCC1 | inactive: 1.04 | inactive: -1.03 | inactive: -1.29

Row | Compound | TEAD-luciferase reporter activity (compound concentration: 200 nM) | TEAD-luciferase reporter activity (compound concentration: 2 uM) | TEAD-luciferase reporter activity (compound concentration: 10 uM)
39 | CC(C)(O)c1ccccc1-c1ccc2[nH]c(/C=C/c3ccc(C(F)(F)F)cc3)nc2c1 [Mavatrep] | inactive: 3.01 | inactive: -0.0843 | inactive: -0.139
40 | O=C1OC(n2cc(F)c(=O)[nH]c2=O)c2ccccc21 (stereo not drawn) | inactive: -1.12 | inactive: 3.62 | inactive: -1.25
41 | Cc1oc2c(C)c3oc(=O)cc(C)c3cc2c1COCCO | inactive: -0.992 | inactive: -2 | inactive: 1.08
42 | N#Cc1cc(NC(=O)[C@H]2c3ccccc3C(=O)N(CC(F)(F)F)[C@@H]2c2cccnc2)ccc1F | inactive: -0.764 | inactive: -0.358 | inactive: 0.252
43 | Oc1ccc(C2Oc3ccc(O)cc3C3CCCC32)cc1 (stereo not drawn) | inactive: -1.33 | inactive: -0.0696 | inactive: 0.942
44 | CN1CC[C@@H](c2c(O)cc(O)c3c(=O)cc(-c4ccc(C(F)(F)F)cc4Cl)oc23)[C@@H]1CO [Voruciclib hydrochloride] | inactive: 0.142 | inactive: 1.73 | inactive: 0.371
45 | CCc1nn(CCCN2CCN(c3cccc(Cl)c3)CC2)c(=O)n1CC | inactive: -1.29 | inactive: -1.44 | inactive: 0.696
46 | CCc1nn(CCCN2CCN(c3cccc(Cl)c3)CC2)c(=O)n1CC [etoperidone] |  | inactive: 0.193 | 
47 | CCN(CC)CCOc1cccc(O)c1 | inactive: 2.05 | inactive: 0.936 | inactive: -1.18
48 | CCC(C(=O)OCCN1CCN(CCOC(=O)C(CC)c2ccccc2)CC1)c1ccccc1 (stereo not drawn) | inactive: -0.545 | inactive: 0.277 | inactive: 0.985
49 | CNCc1c(-c2ccc(Cl)cc2)nc2ccccn12 | inactive: -0.418 | inactive: 0.479 | inactive: -0.67
50 | O=C(O)c1ccc(CN(Cc2cccc(F)c2)c2ccc(OCc3ccc4ccccc4c3)cc2)cc1 [analog of ETH-615] | inactive: -0.843 | inactive: 1.08 | inactive: -0.157
51 | O=C1Cc2cc3c(CCC4CCN(Cc5ccccc5)CC4)noc3cc2N1 | inactive: -1.44 | inactive: 0.812 | inactive: 1.34
52 | Cc1c(C)c2ccc(OS(C)(=O)=O)cc2oc1=O | inactive: -0.53 | inactive: 1.43 | inactive: 0.933
53 | Cc1ccc(CC(=O)N(C)[C@H](Cc2ccc3ccccc3c2)C(=O)N[C@H]2CCCC[C@H]2NC(=O)c2c[nH]c3ccccc23)cc1 | inactive: -1.67 | inactive: -1.91 | inactive: -0.395
54 | Cc1cc(O)cc(C)c1Cl | inactive: -0.489 | inactive: 0.686 | inactive: 0.0017
55 | COc1cc(NC(C)CCCN/C(C)=C2/CCOC2=O)c2ncccc2c1 (stereo not drawn) | inactive: -1.22 | inactive: -0.548 | inactive: -0.0839
56 | O=C(Cn1ccnc1)OCc1ccc(-c2ccccc2Cl)cc1 | inactive: -2.55 | inactive: -0.37 | inactive: -1
57 | COc1ccc([C@@H]2Sc3ccccc3N(CCN)C(=O)[C@@H]2OC(C)=O)cc1 | inactive: -1.7 | inactive: -1.82 | inactive: -2.6

3 entries from above, comma-delimited:
Row,Compound,TEAD-luciferase reporter activity (compound concentration: 200 nM),TEAD-luciferase reporter activity (compound concentration: 2 uM),TEAD-luciferase reporter activity (compound concentration: 10 uM)
35,"Cc1cc(C(C)(C)C)c(O)c(C)c1CC1=NCCN1 [oxymetazoline, Allergan]",inactive: -0.756,inactive: -0.695,inactive: -0.718
36,COc1nc(C)cnc1NS(=O)(=O)c1cccnc1-c1ccc(CC(C)(C)C(=O)O)cc1,inactive: -0.129,inactive: -0.364,inactive: 1.6
37,CC(/C=C/[C@@H]1C[C@]1(C)c1ccc2c(c1)C(C)(C)CCC2(C)C)=C\C(=O)O,inactive: -0.185,inactive: 0.745,inactive: 2.71
